{
  "sequences": {"note": "Sequences of proteins named here, by UniProt entry; tags and fusion partners are left off. A change or cut given only in a name is not applied to a line headed by its entry.", "UniProt P55085": "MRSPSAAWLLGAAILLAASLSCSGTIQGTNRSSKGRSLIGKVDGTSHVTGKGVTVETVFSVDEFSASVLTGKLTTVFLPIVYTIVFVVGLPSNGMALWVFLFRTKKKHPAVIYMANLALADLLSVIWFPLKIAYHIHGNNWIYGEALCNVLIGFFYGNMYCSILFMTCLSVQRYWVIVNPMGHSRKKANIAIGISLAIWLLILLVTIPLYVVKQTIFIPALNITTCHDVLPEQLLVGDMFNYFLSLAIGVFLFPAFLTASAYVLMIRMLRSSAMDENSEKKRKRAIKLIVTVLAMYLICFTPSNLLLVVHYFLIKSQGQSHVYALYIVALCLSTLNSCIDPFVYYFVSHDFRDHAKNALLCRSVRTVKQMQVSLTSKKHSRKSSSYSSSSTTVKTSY"},
  "source": "paper PMC10813316",
  "binders": {"B1": {"name": "epithelial tyrosine kinase (Etk), also known as Bmx, endogenous in OVCAR3 cells (enzyme, UniProt P51813 1-675)", "chain": "MDTKSILEELLLKRSQQKKKMSPNNYKERLFVLTKTNLSYYEYDKMKRGSRKGSIEIKKIRCVEKVNLEEQTPVERQYPFQIVYKDGLLYVYASNEESRSQWLKALQKEIRGNPHLLVKYHSGFFVDGKFLCCQQSCKAAPGCTLWEAYANLHTAVNEEKHRVPTFPDRVLKIPRAVPVLKMDAPSSSTTLAQYDNESKKNYGSQPPSSSTSLAQYDSNSKKIYGSQPNFNMQYIPREDFPDWWQVRKLKSSSSSEDVASSNQKERNVNHTTSKISWEFPESSSSEEEENLDDYDWFAGNISRSQSEQLLRQKGKEGAFMVRNSSQVGMYTVSLFSKAVNDKKGTVKHYHVHTNAENKLYLAENYCFDSIPKLIHYHQHNSAGMITRLRHPVSTKANKVPDSVSLGNGIWELKREEITLLKELGSGQFGVVQLGKWKGQYDVAVKMIKEGSMSEDEFFQEAQTMMKLSHPKLVKFYGVCSKEYPIYIVTEYISNGCLLNYLRSHGKGLEPSQLLEMCYDVCEGMAFLESHQFIHRDLAARNCLVDRDLCVKVSDFGMTRYVLDDQYVSSVGTKFPVKWSAPEVFHYFKYSSKSDVWAFGILMWEVFSLGKQPYDLYDNSQVVLKVSQGHRLYRPHLASDTIYQIMYSCWHELPEKRPTFQQLLSSIEPLREKDKH"}},
  "target": "protease-activated receptor 2 (PAR2), endogenous (human (endogenous in ES2 and OVCAR3)) (UniProt P55085)",
  "test": "co-IP; OVCAR3 cells activated with SLIGKV for the indicated times; lysates precipitated with anti-PAR2 antibodies, blot with anti-Etk/Bmx; endogenous proteins",
  "note": "No constants are given. Whether binding was seen depends on the method and setting. Binding seen in cells or lysates may run through a third protein. Binding can be weak; no strength is given.",
  "data": [
    {"binder": "B1", "values": [
      {"measurement": "binding", "result": "binds"}
    ]}
  ]
}
